Assay results from doi:10.1101/047555.
Results are given in words; binding and its absence hold for the method and conditions named.

Biological target: MamE (residues 108-728), soluble form with the N-terminal membrane anchor removed (Magnetospirillum magneticum AMB-1) (UniProt Q2W8Q8)
Test: SEC

binding: no binding
B1: MamE (residues 108-728), soluble form with the N-terminal membrane anchor removed (enzyme, UniProt Q2W8Q8 108-728)
chain: VDFGPAPIGAGGPFSSVVTLLRNSVVAVTASSANGQAMPDPLGLANPDGLPHFANPATRSVENIGTGVIVRNDGFIVTNYHVVRGANSVFVTVQDDVGSTRYSAEIIKMDEALDLALLKVAPKTPLTAAVLGDSDGVQVADEVIAIGTPFGLDMTVSRGIISAKRKSMVIEGVTHSNLLQTDAAINQGNSGGPLVISNGTVVGINTAIYTPNGAFAGIGFAVPSNQARLFILDEVGWLPTSTAEGASMGLVAMQRPMGGGVGAAGPAIFAGTRAPHTDGRQNMDCTTCHDLIPAGNGRPAPMMPIAAPIPPPPIPMGAVSPHTDGRQNMNCANCHQMLGGAAPIAAPGLGGGAYRFAQPPGSLAINIQGPRGGQSTAAGTGRVTLLGAALTPMSQRLGAQTGVPVGRGVFISGVTPNTPAATAGLRPGDVLLKVDGRPVRLPEEVSAIMVEMHAGRSVRLGVLRDGDVRNMTLVAGPAGLAAAAVQAPAIADMAQPPMGGMAPTAPGMVAVPGGPAVMPKPPTEFNWLGMEIETFQAPRPITGVPGAVPVPGAKGAQVAEVLVGSRAAVAGLQANDLILEVNNRPVAGPARLDAAIKGATNAGQQILLKVNRNGQEFWIVL
modifications: heme loading of the c-type cytochrome motifs in the periplasm
